Data as given in PubChem BioAssay AID1224826 (NIAID, 2016).

Screen: 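Genes that change LPS-induced Tnf promoter activity in mouse macrophages when knocked down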 (primary screen)
Cells: RAW264.7 G9 macrophages from mouse bearing reporters for p65 (GFP) and the Tnf promoter (mCherry)
Reagent: siRNA pool against mouse genes, 100 nM
Timing: 16 h of LPS stimulation, after 2 days of siRNA transfection
Challenge: bacterial lipopolysaccharide (Salmonella minnesota R595), 10 ng/ml
Read-out: 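Nuclear mCherry signal of the Tnf promoter reporter measured by imaging after background removal, scaled to each plate median and turned into robust z-scores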
Reading the numbers: Tnf reporter robust z-score: higher = stronger Tnf promoter reporter signal after LPS; Tnf reporter intensity: higher = stronger Tnf promoter reporter signal
Hit rule: 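Called active when robust z-score is at most -1.3, matching the median of the Tlr4 knock-down control, or over 3; control wells and wells with under 50 cells never active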
Calls: active = Tnf reporter clearly lowered or raised; inactive = no clear change in Tnf reporter
Shown is a random part of about 17,000 reagents tested. About 1,110 of them (6.6%) count as active. 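Active means lowered or raised reporter signal; replicate intensities are raw and not normalised per plate.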 Reagent sequences are not shown.

no.	Target gene	Tnf reporter robust z-score	fewer than 50 cells in well	Tnf reporter intensity, replicate 1	Tnf reporter intensity, replicate 2	Outcome
1	Lyplal1 (lysophospholipase-like 1)	-0.22	enough cells in well	195	120	inactive
2	Ephb2 (Eph receptor B2)	2.47	enough cells in well	362	287	inactive
3	Ccdc169 (coiled-coil domain containing 169)	-0.5	enough cells in well	127	144	inactive
4	Miox (myo-inositol oxygenase)	-0.02	enough cells in well	127	172	inactive
5	Ak1 (adenylate kinase 1)	2.15	enough cells in well	166	274	inactive
6	Sumo3 (small ubiquitin-like modifier 3)	1.61	enough cells in well	159	149	inactive
7	Mier2 (MIER family member 2)	1.13	enough cells in well	307	109	inactive
8	Slc36a4		fewer than 50 cells per well; well left out of calls	59.2	20.6	inactive
9	Nrarp (Notch-regulated ankyrin repeat protein)	-0.35	enough cells in well	165	133	inactive
10	Pmm1 (phosphomannomutase 1)		fewer than 50 cells per well; well left out of calls	67.3	109	inactive
11	Duoxa2 (dual oxidase maturation factor 2)	-0.99	enough cells in well	68.9	179	inactive
12	Il20ra (interleukin 20 receptor, alpha)	0.19	enough cells in well	244	221	inactive
13	Ubxn11 (UBX domain protein 11)		fewer than 50 cells per well; well left out of calls	119	71.1	inactive
14	Ivns1abp (influenza virus NS1A binding protein)	0.38	enough cells in well	292	154	inactive
15	Il6 (interleukin 6)	0.38	enough cells in well	236	194	inactive
16	Sprr2a1 (small proline-rich protein 2A1)	-0.73	enough cells in well	82.4	37.3	inactive
17	Brca2 (breast cancer 2, early onset)	-1.08	enough cells in well	88.8	148	inactive

Sorted by “Tnf reporter intensity, replicate 2” (low to high): some entries from above.
Target gene	Tnf reporter robust z-score	fewer than 50 cells in well	Tnf reporter intensity, replicate 1	Tnf reporter intensity, replicate 2	Outcome
Sprr2a1 (small proline-rich protein 2A1)	-0.73	enough cells in well	82.4	37.3	inactive
Ubxn11 (UBX domain protein 11)		fewer than 50 cells per well; well left out of calls	119	71.1	inactive
Brca2 (breast cancer 2, early onset)	-1.08	enough cells in well	88.8	148	inactive
Ivns1abp (influenza virus NS1A binding protein)	0.38	enough cells in well	292	154	inactive
Duoxa2 (dual oxidase maturation factor 2)	-0.99	enough cells in well	68.9	179	inactive
Il6 (interleukin 6)	0.38	enough cells in well	236	194	inactive
Il20ra (interleukin 20 receptor, alpha)	0.19	enough cells in well	244	221	inactive

Continued:
no.	Target gene	Tnf reporter robust z-score	fewer than 50 cells in well	Tnf reporter intensity, replicate 1	Tnf reporter intensity, replicate 2	Outcome
18	Rnf215 (ring finger protein 215)	0.83	enough cells in well	285	113	inactive
19	Asf1b (anti-silencing function 1B histone chaperone)	0.13	enough cells in well	183	167	inactive
20	Ace2 (angiotensin converting enzyme 2)	0.32	enough cells in well	195	178	inactive
21	Bet1l (Bet1 golgi vesicular membrane trafficking protein like)		fewer than 50 cells per well; well left out of calls	113	204	inactive
22	Tlr12 (toll-like receptor 12)		fewer than 50 cells per well; well left out of calls	80.5	62.4	inactive
23	Mms22l (MMS22-like, DNA repair protein)	-0.84	enough cells in well	118	138	inactive
24	Rnf141 (ring finger protein 141)	-0.18	enough cells in well	136	104	inactive
25	Btbd35f1 (BTB domain containing 35, family member 1)	1.13	enough cells in well	292	117	inactive
26	Gbx1 (gastrulation brain homeobox 1)	0.35	enough cells in well	236	180	inactive
27	Prlhr (prolactin releasing hormone receptor)	0.42	enough cells in well	217	387	inactive
28	Tceal1 (transcription elongation factor A (SII)-like 1)	-0.25	enough cells in well	104	88.3	inactive
29	Pfdn6 (prefoldin subunit 6)	1.9	enough cells in well	367	294	inactive
30	Hgd (homogentisate 1, 2-dioxygenase)	-0.97	enough cells in well	144	141	inactive
31	Dctn2 (dynactin 2)	0.19	enough cells in well	243	246	inactive
32	Oxct2b (3-oxoacid CoA transferase 2B)	0.35	enough cells in well	154	159	inactive
33	Dennd1c (DENN domain containing 1C)	-1.2	enough cells in well	114	35.4	inactive
34	Nrros (negative regulator of reactive oxygen species)	-0.73	enough cells in well	130	93.9	inactive
35	Or8b12 (olfactory receptor family 8 subfamily B member 12)		fewer than 50 cells per well; well left out of calls	78.1	40.9	inactive
36	4930474N05Rik (RIKEN cDNA 4930474N05 gene)		fewer than 50 cells per well; well left out of calls	136	56.9	inactive
37	Atg13 (autophagy related 13)	0.38	enough cells in well	234	170	inactive
38	Scgn (secretagogin, EF-hand calcium binding protein)	-0.26	enough cells in well	98.8	134	inactive
39	Prpf8 (pre-mRNA processing factor 8)	-0.1	enough cells in well	258	168	inactive
40	Dlgap3 (DLG associated protein 3)		fewer than 50 cells per well; well left out of calls	85.5	91.4	inactive
